Experiment [1] addresses DNA sliding clamp (β subunit) (E. coli) (UniProt P0A988). As to the kind of experiment: SEC; competition: Pol IV 20 μM and clamp 10 μM (dimer) with exonuclease 10 μM and/or Pol III or its C-terminal deletions (Pol III 10 μM); fractions by SDS-PAGE; both purified.
The target is the same in experiment [2]. The experiment is described as follows: SEC; Pol IV 20 μM with clamp 10 μM (dimer), alone; fractions by SDS-PAGE; both purified. For orientation: Size exclusion chromatography separates by hydrodynamic size, large species first.

The chains behind the UniProt entries cited, without tags or fusion partners.
UniProt P0A988: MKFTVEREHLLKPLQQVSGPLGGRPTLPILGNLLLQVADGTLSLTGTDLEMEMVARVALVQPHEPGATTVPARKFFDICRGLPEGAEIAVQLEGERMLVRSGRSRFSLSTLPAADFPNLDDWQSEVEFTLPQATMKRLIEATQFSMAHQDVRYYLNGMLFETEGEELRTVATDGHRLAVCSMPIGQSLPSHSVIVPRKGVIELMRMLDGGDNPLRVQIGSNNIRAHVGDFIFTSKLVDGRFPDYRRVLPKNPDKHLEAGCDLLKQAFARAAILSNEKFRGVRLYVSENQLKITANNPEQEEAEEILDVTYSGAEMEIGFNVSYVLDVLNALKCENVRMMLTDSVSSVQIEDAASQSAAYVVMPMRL

These are yes or no findings as the source states them, for the method shown. Some entries that bind do so weakly or less than the wild type.

B1: translesion DNA polymerase IV (Pol IV) (enzyme, UniProt Q47155 1-351)
chain: MRKIIHVDMDCFFAAVEMRDNPALRDIPIAIGGSRERRGVISTANYPARKFGVRSAMPTGMALKLCPHLTLLPGRFDAYKEASNHIREIFSRYTSRIEPLSLDEAYLDVTDSVHCHGSATLIAQEIRQTIFNELQLTASAGVAPVKFLAKIASDMNKPNGQFVITPAEVPAFLQTLPLAKIPGVGKVSAAKLEAMGLRTCGDVQKCDLVMLLKRFGKFGRILWERSQGIDERDVNSERLRKSVGVERTMAEDIHHWSECEAIIERLYPELERRLAKVKPDLLIARQGVKLKFDDFQQTTQEHVWPRLNKADLIATARKTWDERRGGRGVRLVGLHVTLLDPQMERQLVLGL
As for B1, the binding entry in experiment [1] and in experiment [2] was “binds” throughout.

Source of the values: PMC3642679.
